For test [1], the target named is T1, ERRα (estrogen-related receptor alpha) (human (endogenous in MDA-MB-231)) (UniProt P11474).
T1 sequence: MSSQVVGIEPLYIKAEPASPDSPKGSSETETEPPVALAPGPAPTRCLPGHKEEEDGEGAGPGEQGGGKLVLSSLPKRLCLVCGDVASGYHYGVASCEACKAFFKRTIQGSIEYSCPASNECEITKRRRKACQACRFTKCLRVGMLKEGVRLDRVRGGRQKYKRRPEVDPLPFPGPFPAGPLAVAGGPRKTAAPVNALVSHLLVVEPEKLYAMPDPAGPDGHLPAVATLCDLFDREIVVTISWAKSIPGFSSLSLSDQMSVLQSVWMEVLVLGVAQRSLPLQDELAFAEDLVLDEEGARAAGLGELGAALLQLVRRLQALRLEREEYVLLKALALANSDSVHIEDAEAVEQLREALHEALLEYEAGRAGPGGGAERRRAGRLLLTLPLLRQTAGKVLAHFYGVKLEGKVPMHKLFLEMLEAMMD
The test is described as follows: proximity ligation; Duolink PLA kit on MDA-MB-231 cells fixed with 2% paraformaldehyde, anti-SET7 and anti-ERRα antibodies, DAPI counterstain; endogenous proteins.

In test [2] the target is T1, ERRα (estrogen-related receptor alpha) (human (endogenous in MDA-MB-231)). The test is described as follows: co-IP; endogenous proteins in MDA-MB-231 lysate (50 mM Tris pH7.5, 150 mM NaCl, 1 mM EDTA, 1% Triton X-100, 8% glycerol); immunoprecipitation with anti-SET7 or anti-ERRα antibodies on Sepharose-protein A, 4 °C, rabbit IgG as control; immunoblotting. (A western blot detects proteins with antibodies after separation by electrophoresis.)

These are yes or no findings as the source states them, for the method shown. In cells and extracts the contact can be indirect. Some results given as binding are weak or reduced against the parent protein; the word gives no strength.

B1: SET7 (protein, UniProt Q8WTS6 1-366)
chain: MDSDDEMVEEAVEGHLDDDGLPHGFCTVTYSSTDRFEGNFVHGEKNGRGKFFFFDGSTLEGYYVDDALQGQGVYTYEDGGVLQGTYVDGELNGPAQEYDTDGRLIFKGQYKDNIRHGVCWIYYPDGGSLVGEVNEDGEMTGEKIAYVYPDERTALYGKFIDGEMIEGKLATLMSTEEGRPHFELMPGNSVYHFDKSTSSCISTNALLPDPYESERVYVAESLISSAGEGLFSKVAVGPNTVMSFYNGVRITHQEVDSRDWALNGNTLSLDEETVIDVPEPYNHVSKYCASLGHKANHSFTPNCIYDMFVHPRFGPIKCIRTLRAVEADEELTVAYGYDHSPPGKSGPEAPEWYQVELKAFQATQQK
Consider B1, for which the binding result in test [1] and in test [2] was “binds” each time.
